# In patent EP0415456A2, “Xanthine compounds” (priority 1989, dated 1991):
# Tested on: Wistar rats
# Test: diuretic effect
# Format: in vivo
# Details: 25 mg/kg oral, urine collected for 6 hours, relative to control
# Experimental: Wistar rats (male: 150 - 300 g) were starved for 18 hours prior to the administration of the test compounds. […] Urine was collected for 6 hours after the administration. Urine volume was measured and the electrolytes (Na+ and K+) in the urine were determined with a flame photome[…], Hitachi Ltd., Japan). All parameters are expressed as relative values of control.
smiles,measurement,value
"NS(=O)(=O)c1cc(C(=O)O)c(NCc2ccco2)cc1Cl [Furosemide, reference compound]",Increase in K⁺ excretion (%),57%
same,Increase in Na⁺excretion (%),64%
